{"source": "paper PMC5042776", "about": "(Molecular Medicine Reports, 2016)", "key": {"[1]": {"system": "A/shenzhen/203/2001 (H3N2 subtype)", "assay": "microbe, parasite or virus in culture", "type": "cell-based", "conditions": "Influenza A virus, H3N2, MDCK, 72 h, read-out: IC50 (H3N2)"}, "Cytotoxicity assay": {"assay": "Cytotoxicity assay", "type": "cell-based, canine", "conditions": "dog, MDCK cells"}}, "data": [{"smiles": "C=C1CCC[C@]2(C)C=C3OC(=O)C(C)=C3C[C@@H]12", "note": "[Atractylenolide I, atractylenolide I]", "values": [{"measurement": "IC50", "setting": "[1]", "value": 35.1, "unit": "µg/mL"}, {"measurement": "CC50 at 3 days", "setting": "Cytotoxicity assay", "value": 204, "unit": "µg/mL"}]}]}
